Data published in patent US12458651B2, “Compounds and their uses for alleviating menopause-associated symptoms” (ESTETRA SRL, priority 2018, dated 2025).

Tests used:
post-menopausal women [1] = assay: Dose-finding study: weekly frequency of moderate to severe VMS; format: in vivo
Excerpt: To determine the Minimum Effective Dose (MED), firstly the selection criteria required that patients presented at least 7 moderate to severe VMS/day or at least 50 moderate to severe VMS/week in the week preceding randomization. Secondly, a placebo group was included in a double-blind fashion. Thirdly, the total patient number was such that statistical significance could be obtained between separate arms of the study. Fourthly, the absolute change from baseline in weekly frequency of moderate to severe VMS was taken into account. An analysis of covariance (ANCOVA) was performed based on the untransformed change in weekly frequency of moderate to severe VMS from baseline. Finally, the change in severity from baseline was evaluated. For this, the Severity Scoring System of VMS was documented by the subjects as follows: • a score of Mild (1) for a sensation of heat without sweating; • a score of Moderate (2) for a sensation of heat with sweating/the subject is able to continue activity; and • a score of Severe (3) fora sensation of heat with sweating/which causes cessation of activity.
Enrolment was approximately 18 months. Individual subject participation was up to 27 weeks: up to 6 weeks pre-screening and washout, up to 4 weeks screening and run-in period, up to 91 days (13 weeks) of E4/placebo treatment followed by 2 weeks (14 days) of progestin therapy and a Follow up visit 1 week after completion of progestin therapy in non-hysterectomised subjects only.
This was a prospective, multicentre, randomised, placebo-controlled, double-blinded, dose-finding study.
Eligible subjects were hysterectomised and non-hysterectomised post-menopausal women aged 40 to 65 years, inclusive, presenting at least 7 moderate to severe hot flushes/day or at least 50 moderate to severe hot flushes/week.
The subjects have met all of the following inclusion criteria at the randomization visit. These criteria were assessed during the screening period: • 1. Women aged 40 to 65 years, inclusive, presenting at least 7 moderate to severe hot flushes/day or at least 50 moderate to severe hot flushes/week in the week preceding randomization. • 2. Body Mass Index (BMI) between 18.0 and 35.0 kg/m^2, inclusive. • 3. […]
In order to analyse the data recorded in this study, treatment groups have been compared using an ANCOVA (analysis of covariance) with respect to the change in weekly frequency of moderate to severe VMS from baseline to weeks 4 and 12. […]

post-menopausal women [2] = assay: Dose-finding study: hot flush weekly weighted score; format: in vivo
Protocol: Further, the terms “Hot Flush Weekly Weighted Score”, as used herein, corresponds to a score taking into account frequency and severity which is calculated by using the severity score (as calculated above): [(1×No. of mild VMS)+(2×No. of moderate VMS)+(3×No. of severe VMS)] during a 7 day period.
Such a weighted score was for example used by Notelovitz et al. (“Initial 17β-Estradiol Dose for Treating Vasomotor Symptoms”; Obstetrics and Gynaecology, Vol. 95(5), May 2000, p. 726-731). This score was used to generate the data included in Example 1 further below, under section A. c) “Hot Flush Weekly Weighted Score”.

C[C@]12CC[C@@H]3c4ccc(O)cc4CC[C@H]3[C@@H]1[C@@H](O)[C@@H](O)[C@@H]2O [Estetrol, 1,3,5 (10)-estratrien-3,15alpha,16alpha,17beta-tetrol]
Relative change in weekly frequency of moderate to severe VMS, difference with placebo (including 2.5 mg and 5 mg): p_value (post-menopausal women [1]; 10.0 mg vs 0 mg, week 4): 0.2615
Relative change in weekly frequency of moderate to severe VMS, difference with placebo (including 2.5 mg and 5 mg): p_value (post-menopausal women [1]; 10.0 mg vs 0 mg, week 12): 0.1798
Relative change in weekly frequency of moderate to severe VMS, difference with placebo (including 2.5 mg and 5 mg): p_value (post-menopausal women [1]; 15.0 mg vs 0 mg, week 4): 0.00218
Relative change in weekly frequency of moderate to severe VMS, difference with placebo (including 2.5 mg and 5 mg): p_value (post-menopausal women [1]; 15.0 mg vs 0 mg, week 12): 0.00099
Relative change in weekly weighted score, differences with placebo: p_value (post-menopausal women [2]; 2.5 mg vs 0 mg, week 4): 1.0000
Relative change in weekly weighted score, differences with placebo: p_value (post-menopausal women [2]; 2.5 mg vs 0 mg, week 12): 0.6744
Relative change in weekly weighted score, differences with placebo: p_value (post-menopausal women [2]; 5.0 mg vs 0 mg, week 4): 0.8833
Relative change in weekly weighted score, differences with placebo: p_value (post-menopausal women [2]; 5.0 mg vs 0 mg, week 12): 0.8871
Relative change in hot flush weekly weighted score, difference with placebo (including 2.5 mg and 5 mg): p_value (post-menopausal women [2]; 10.0 mg vs 0 mg, week 4): 0.4167
Relative change in weekly weighted score, differences with placebo: p_value (post-menopausal women [2]; 10.0 mg vs 0 mg, week 4): 0.6745
Relative change in hot flush weekly weighted score, difference with placebo (including 2.5 mg and 5 mg): p_value (post-menopausal women [2]; 10.0 mg vs 0 mg, week 12): 0.1404
Relative change in weekly weighted score, differences with placebo: p_value (post-menopausal women [2]; 10.0 mg vs 0 mg, week 12): 0.7861
Relative change in hot flush weekly weighted score, difference with placebo (including 2.5 mg and 5 mg): p_value (post-menopausal women [2]; 15.0 mg vs 0 mg, week 4): 0.00178
Relative change in weekly weighted score, differences with placebo: p_value (post-menopausal women [2]; 15.0 mg vs 0 mg, week 4): 0.0267
Relative change in hot flush weekly weighted score, difference with placebo (including 2.5 mg and 5 mg): p_value (post-menopausal women [2]; 15.0 mg vs 0 mg, week 12): 0.00097
Relative change in weekly weighted score, differences with placebo: p_value (post-menopausal women [2]; 15.0 mg vs 0 mg, week 12): 0.0276
